± gives the standard deviation of the averaged measurements. The list shows a part of the results, in another mix than the full data.
Compound: Nc1ncnc2c1ncn2[C@@H]1O[C@H](COP(=O)(O)OP(=O)(O)OP(=O)(O)O)[C@@H](O)[C@H]1O [adenosine triphosphate]
Assay: NP40-soluble protein abundance relative to vehicle (solubility fold change) (ratio); higher = more soluble protein in presence of ATP
In short: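 Jurkat crude lysate (Dounce-homogenised) was treated with eight concentrations from 0.1 to 10 mM for 10 min at room temperature, then 3 min at 37 °C. It was solubilised with 0.8% NP40 and benzonase (60 min, 4 °C) and ultracentrifuged, and the supernatant was TMT-labelled for LC-MS/MS. Intensities were vsn-normalised, and the value is the fold change against the NP40-processed vehicle per replicate, from three independent experiments.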

Chains of the proteins cited; added tags and fusions are not shown. Lines headed by an entry give the natural chain unless they say otherwise; changes in a name come on top.
UniProt O75695: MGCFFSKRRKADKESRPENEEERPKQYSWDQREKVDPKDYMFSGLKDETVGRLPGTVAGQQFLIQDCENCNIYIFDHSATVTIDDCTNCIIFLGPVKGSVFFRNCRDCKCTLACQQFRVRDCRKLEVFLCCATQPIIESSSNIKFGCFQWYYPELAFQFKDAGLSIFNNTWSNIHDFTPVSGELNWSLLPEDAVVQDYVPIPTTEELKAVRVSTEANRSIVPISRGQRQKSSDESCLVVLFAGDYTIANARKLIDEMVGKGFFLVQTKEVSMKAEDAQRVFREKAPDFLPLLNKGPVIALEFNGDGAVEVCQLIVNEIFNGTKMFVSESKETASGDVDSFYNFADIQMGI
UniProt O60504: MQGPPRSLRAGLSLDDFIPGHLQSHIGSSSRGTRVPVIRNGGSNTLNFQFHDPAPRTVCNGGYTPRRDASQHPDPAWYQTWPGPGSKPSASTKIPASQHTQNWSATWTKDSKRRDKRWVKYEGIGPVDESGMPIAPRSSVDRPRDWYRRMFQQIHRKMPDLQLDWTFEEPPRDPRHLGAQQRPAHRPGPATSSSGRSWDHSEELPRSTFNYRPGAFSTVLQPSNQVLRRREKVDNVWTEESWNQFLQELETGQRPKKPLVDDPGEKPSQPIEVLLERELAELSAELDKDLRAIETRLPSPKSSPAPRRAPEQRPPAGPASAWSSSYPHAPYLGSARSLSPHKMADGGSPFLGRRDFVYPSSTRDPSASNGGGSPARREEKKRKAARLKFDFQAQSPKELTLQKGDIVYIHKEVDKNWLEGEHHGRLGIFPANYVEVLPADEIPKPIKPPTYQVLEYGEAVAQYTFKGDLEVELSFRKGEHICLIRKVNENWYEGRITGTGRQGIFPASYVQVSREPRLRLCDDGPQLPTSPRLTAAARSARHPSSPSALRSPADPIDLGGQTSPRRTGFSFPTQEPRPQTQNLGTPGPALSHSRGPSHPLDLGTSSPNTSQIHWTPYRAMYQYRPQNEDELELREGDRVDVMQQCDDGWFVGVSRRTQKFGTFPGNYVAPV
UniProt O75525: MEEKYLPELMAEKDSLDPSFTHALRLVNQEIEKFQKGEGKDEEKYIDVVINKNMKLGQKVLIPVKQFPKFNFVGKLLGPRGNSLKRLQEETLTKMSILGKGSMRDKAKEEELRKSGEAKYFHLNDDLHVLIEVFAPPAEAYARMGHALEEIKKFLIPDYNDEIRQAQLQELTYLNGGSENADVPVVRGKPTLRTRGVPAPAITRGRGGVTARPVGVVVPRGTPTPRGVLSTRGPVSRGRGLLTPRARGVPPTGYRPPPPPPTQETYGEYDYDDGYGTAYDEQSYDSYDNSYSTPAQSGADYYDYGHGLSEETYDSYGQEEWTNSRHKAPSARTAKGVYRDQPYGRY
UniProt O95433, whole entry: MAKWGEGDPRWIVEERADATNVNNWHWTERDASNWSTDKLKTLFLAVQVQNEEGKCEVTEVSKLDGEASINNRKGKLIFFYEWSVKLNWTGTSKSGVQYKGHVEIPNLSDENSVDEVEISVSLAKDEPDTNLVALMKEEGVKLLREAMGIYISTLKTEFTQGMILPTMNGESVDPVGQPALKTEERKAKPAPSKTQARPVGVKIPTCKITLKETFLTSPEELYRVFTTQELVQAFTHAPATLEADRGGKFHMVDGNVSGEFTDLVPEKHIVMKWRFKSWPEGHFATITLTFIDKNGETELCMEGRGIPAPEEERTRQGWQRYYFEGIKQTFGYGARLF
UniProt O75828: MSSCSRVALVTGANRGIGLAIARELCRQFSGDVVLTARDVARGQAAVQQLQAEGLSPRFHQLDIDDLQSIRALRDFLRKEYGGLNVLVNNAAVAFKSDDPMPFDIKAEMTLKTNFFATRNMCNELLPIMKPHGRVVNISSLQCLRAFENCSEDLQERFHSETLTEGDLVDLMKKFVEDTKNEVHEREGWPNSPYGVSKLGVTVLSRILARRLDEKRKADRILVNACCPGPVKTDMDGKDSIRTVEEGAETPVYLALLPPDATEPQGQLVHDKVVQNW
UniProt O95219: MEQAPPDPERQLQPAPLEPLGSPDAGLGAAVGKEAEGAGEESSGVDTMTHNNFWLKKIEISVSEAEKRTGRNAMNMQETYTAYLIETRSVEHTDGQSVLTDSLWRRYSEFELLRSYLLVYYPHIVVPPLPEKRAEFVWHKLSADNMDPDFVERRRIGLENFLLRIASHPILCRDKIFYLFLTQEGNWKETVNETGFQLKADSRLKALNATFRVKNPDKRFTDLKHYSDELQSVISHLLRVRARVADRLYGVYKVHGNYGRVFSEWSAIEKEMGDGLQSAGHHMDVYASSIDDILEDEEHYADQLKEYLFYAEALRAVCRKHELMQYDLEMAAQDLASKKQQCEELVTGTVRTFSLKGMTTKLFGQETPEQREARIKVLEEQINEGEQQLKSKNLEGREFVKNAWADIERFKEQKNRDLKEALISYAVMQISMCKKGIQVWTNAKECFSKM
UniProt O60701: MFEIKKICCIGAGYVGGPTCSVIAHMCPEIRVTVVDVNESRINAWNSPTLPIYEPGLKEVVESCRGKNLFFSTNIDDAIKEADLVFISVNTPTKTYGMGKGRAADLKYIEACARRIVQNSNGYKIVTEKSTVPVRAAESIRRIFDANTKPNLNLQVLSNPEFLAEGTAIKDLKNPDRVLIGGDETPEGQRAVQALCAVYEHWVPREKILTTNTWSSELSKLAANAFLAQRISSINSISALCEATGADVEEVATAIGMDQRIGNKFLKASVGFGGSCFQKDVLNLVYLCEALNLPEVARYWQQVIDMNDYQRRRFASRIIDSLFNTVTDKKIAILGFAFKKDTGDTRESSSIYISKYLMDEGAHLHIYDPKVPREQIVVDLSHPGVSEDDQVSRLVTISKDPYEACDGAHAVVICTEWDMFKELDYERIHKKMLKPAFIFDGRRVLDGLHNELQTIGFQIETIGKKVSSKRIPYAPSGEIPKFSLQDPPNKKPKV
UniProt O75351, whole entry: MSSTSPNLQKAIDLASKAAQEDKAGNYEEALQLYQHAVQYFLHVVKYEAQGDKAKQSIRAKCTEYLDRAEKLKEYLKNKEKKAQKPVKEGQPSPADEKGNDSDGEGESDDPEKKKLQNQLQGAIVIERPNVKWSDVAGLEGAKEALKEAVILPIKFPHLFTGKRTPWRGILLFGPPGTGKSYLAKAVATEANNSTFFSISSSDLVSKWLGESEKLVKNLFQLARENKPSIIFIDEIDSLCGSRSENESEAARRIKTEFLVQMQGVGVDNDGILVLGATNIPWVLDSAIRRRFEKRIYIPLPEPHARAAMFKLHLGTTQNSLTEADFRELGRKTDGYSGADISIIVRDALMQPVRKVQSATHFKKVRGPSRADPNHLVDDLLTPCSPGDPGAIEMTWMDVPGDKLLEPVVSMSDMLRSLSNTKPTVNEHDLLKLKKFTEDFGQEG
UniProt O94992, whole entry: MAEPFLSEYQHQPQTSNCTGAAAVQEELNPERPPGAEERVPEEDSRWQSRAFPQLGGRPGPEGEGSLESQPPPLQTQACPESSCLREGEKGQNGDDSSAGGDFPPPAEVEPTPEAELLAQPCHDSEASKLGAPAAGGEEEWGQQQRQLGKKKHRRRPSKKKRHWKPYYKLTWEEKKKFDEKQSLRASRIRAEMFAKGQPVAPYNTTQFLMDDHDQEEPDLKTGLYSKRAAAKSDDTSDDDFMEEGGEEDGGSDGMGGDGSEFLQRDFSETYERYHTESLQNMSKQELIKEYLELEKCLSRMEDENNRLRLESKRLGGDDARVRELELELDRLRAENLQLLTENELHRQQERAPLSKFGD
UniProt O94903: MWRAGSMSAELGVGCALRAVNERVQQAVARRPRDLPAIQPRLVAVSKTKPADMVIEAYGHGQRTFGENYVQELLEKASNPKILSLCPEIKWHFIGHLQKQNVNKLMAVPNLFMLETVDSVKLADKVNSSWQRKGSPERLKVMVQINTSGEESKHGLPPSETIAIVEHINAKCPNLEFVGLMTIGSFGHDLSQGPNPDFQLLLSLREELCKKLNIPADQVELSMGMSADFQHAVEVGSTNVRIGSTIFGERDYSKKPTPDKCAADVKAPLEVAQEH
UniProt O75569: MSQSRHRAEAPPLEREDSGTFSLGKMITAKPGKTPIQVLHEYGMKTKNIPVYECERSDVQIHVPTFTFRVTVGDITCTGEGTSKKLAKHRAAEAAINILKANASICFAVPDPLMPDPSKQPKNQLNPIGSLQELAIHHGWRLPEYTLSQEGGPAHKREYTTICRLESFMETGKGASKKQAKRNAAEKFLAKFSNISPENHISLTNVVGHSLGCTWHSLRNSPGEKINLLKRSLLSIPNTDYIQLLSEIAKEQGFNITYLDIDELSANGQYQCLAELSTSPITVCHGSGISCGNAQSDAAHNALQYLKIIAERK
UniProt O95167, whole entry: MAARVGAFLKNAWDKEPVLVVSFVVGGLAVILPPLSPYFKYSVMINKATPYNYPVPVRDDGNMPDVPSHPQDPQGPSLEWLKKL
UniProt O76031, whole entry: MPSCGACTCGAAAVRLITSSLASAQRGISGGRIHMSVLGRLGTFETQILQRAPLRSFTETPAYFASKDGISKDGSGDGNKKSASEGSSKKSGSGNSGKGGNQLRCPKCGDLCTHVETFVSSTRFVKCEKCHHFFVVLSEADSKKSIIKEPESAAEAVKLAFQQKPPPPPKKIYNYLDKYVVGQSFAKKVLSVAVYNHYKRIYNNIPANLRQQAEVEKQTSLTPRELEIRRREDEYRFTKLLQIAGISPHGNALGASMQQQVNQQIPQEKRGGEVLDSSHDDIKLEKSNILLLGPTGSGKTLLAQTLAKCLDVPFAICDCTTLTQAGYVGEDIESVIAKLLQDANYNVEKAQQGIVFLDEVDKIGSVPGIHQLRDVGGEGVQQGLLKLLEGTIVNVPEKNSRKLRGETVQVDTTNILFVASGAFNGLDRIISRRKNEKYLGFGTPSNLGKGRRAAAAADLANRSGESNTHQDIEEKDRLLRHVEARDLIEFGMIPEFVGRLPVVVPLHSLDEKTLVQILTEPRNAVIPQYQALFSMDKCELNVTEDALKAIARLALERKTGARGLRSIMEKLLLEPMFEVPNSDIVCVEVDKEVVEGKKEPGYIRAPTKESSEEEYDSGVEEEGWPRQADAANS
UniProt O94967: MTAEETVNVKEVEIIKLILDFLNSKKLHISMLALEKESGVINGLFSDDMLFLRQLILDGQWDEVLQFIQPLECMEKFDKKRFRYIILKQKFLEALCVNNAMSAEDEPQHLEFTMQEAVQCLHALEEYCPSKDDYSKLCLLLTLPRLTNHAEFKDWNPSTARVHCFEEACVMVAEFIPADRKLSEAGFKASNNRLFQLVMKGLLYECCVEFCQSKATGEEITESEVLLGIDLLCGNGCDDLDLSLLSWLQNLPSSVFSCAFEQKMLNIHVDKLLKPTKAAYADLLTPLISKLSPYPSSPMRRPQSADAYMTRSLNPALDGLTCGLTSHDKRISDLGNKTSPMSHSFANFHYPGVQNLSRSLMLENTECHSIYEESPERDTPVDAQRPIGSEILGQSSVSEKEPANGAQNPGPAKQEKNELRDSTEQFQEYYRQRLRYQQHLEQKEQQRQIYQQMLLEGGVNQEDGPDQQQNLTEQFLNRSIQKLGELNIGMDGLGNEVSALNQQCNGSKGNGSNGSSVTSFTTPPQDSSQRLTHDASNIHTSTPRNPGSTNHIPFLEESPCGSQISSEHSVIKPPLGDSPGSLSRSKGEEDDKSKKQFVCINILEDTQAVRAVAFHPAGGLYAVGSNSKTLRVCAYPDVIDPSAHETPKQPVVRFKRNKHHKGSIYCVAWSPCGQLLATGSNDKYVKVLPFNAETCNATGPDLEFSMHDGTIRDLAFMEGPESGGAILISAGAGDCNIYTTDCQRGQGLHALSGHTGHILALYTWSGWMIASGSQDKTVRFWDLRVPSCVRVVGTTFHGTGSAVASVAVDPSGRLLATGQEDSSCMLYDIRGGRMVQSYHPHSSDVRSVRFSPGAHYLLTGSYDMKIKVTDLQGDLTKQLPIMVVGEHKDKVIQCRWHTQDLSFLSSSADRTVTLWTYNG
UniProt O95456: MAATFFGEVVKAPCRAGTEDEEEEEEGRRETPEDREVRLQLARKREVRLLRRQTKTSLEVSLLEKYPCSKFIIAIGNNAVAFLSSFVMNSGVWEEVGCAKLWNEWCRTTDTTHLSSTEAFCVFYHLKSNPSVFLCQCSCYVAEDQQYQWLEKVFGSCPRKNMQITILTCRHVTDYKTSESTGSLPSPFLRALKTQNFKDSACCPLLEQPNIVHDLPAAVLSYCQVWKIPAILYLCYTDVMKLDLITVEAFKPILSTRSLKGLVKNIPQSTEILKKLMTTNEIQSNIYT
UniProt O60830: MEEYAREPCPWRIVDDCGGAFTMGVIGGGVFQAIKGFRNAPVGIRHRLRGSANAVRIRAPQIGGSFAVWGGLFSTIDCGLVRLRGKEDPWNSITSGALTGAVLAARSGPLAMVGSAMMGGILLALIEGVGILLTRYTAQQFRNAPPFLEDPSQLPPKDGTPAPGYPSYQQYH

| Target | NP40-soluble protein abundance (concentration: 1mM) | NP40-soluble protein abundance (concentration: 2mM) | NP40-soluble protein abundance (concentration: 4mM) | NP40-soluble protein abundance (concentration: 6mM) | NP40-soluble protein abundance (concentration: 8mM) | NP40-soluble protein abundance (concentration: 10mM) |
| --- | --- | --- | --- | --- | --- | --- |
| RP2 (UniProt O75695) | 0.989 ± 0.025 | 0.98 ± 0.046 | 0.965 ± 0.05 | 0.966 ± 0.053 | 0.962 ± 0.051 | 0.952 ± 0.065 |
| UniProt O60504 and related entries | 0.976 ± 0.021 | 0.982 ± 0.015 | 0.98 ± 0.011 | 0.975 ± 0.02 | 0.98 ± 0.011 | 0.967 ± 0.02 |
| UniProt O76021 and related entries | 1.09 ± 0.12 | 1.16 ± 0.11 | 1.22 ± 0.094 | 1.31 ± 0.17 | 1.28 ± 0.067 | 1.46 ± 0.17 |
| LETM1 (UniProt O95202) | 0.961 ± 0.058 | 0.941 ± 0.021 | 0.939 ± 0.022 | 0.9753 ± 0.0044 | 0.934 ± 0.025 | 0.917 ± 0.03 |
| UniProt O94913 and related entries | 1.03 ± 0.048 | 1.03 ± 0.026 | 1.06 ± 0.031 | 1.08 ± 0.018 | 1.04 ± 0.022 | 1.06 ± 0.02 |
| UniProt O76062 and related entries | 1 ± 0.15 | 1.01 ± 0.14 | 1.03 ± 0.15 | 0.885 ± 0.14 | 1.07 ± 0.075 | 0.984 ± 0.1 |
| UniProt O75525 and related entries | 1.1 ± 0.044 | 1.092 ± 0.009 | 1.16 ± 0.014 | 1.18 ± 0.043 | 1.21 ± 0.023 | 1.24 ± 0.044 |
| UniProt O94986 and related entries | 0.952 ± 0.16 | 0.991 ± 0.14 | 1.13 ± 0.093 | 1.11 ± 0.14 | 0.962 ± 0.099 | 1.01 ± 0.059 |
| AHSA1 (UniProt O95433) | 0.986 ± 0.07 | 0.982 ± 0.061 | 0.944 ± 0.062 | 0.97 ± 0.077 | 0.958 ± 0.07 | 0.94 ± 0.057 |
| UniProt O94826 | 0.966 ± 0.02 | 0.971 ± 0.0099 | 0.9514 ± 0.0085 | 0.9994 ± 0.005 | 0.941 ± 0.017 | 0.947 ± 0.034 |
| CBR3 (UniProt O75828) | 1.01 ± 0.028 | 1.05 ± 0.07 | 1.05 ± 0.047 | 1.06 ± 0.064 | 1 ± 0.053 | 0.982 ± 0.051 |
| UniProt O75460 | 1.02 ± 0.13 | 1.02 ± 0.035 | 1.08 ± 0.069 | 1.04 ± 0.082 | 1.02 ± 0.066 | 0.996 ± 0.073 |
| SNX4 (UniProt O95219) | 1.02 ± 0.0059 | 0.967 ± 0.11 | 1.09 ± 0.076 | 1.01 ± 0.049 | 0.94 ± 0.084 | 1 ± 0.15 |
| UGDH (UniProt O60701) | 1.01 ± 0.028 | 0.999 ± 0.032 | 1 ± 0.019 | 0.983 ± 0.062 | 0.977 ± 0.048 | 0.984 ± 0.042 |
| NBN (UniProt O60934) | 1.04 ± 0.062 | 1.02 ± 0.039 | 1.03 ± 0.039 | 1.05 ± 0.054 | 1.03 ± 0.035 | 1.02 ± 0.015 |
| UniProt O75054 and related entries | 0.943 ± 0.098 | 0.936 ± 0.079 | 0.944 ± 0.095 | 0.929 ± 0.12 | 0.868 ± 0.046 | 0.947 ± 0.043 |
| VPS4B (UniProt O75351) | 1 ± 0.04 | 1.01 ± 0.011 | 0.997 ± 0.021 | 1.01 ± 0.031 | 0.975 ± 0.048 | 0.991 ± 0.033 |
| UniProt O60566 and related entries | 1.02 ± 0.021 | 1.01 ± 0.018 | 0.985 ± 0.02 | 0.988 ± 0.033 | 0.979 ± 0.021 | 0.993 ± 0.021 |
| UniProt O60443 and related entries | 0.955 ± 0.062 | 0.955 ± 0.086 | 0.963 ± 0.096 | 0.951 ± 0.13 | 0.961 ± 0.088 | 1.03 ± 0.03 |
| HEXIM1 (UniProt O94992) | 0.971 ± 0.021 | 0.993 ± 0.017 | 1.01 ± 0.029 | 1.1 ± 0.021 | 1.1 ± 0.018 | 1.12 ± 0.045 |
| UniProt O94903 | 0.982 ± 0.052 | 0.991 ± 0.011 | 0.967 ± 0.034 | 1.03 ± 0.05 | 0.968 ± 0.022 | 0.975 ± 0.024 |
| PRKRA (UniProt O75569) | 0.951 ± 0.066 | 0.952 ± 0.073 | 1.01 ± 0.043 | 1.08 ± 0.072 | 1.09 ± 0.063 | 1.16 ± 0.12 |
| UniProt O95167 and related entries | 0.855 ± 0.14 | 0.803 ± 0.11 | 0.777 ± 0.15 | 0.794 ± 0.13 | 0.828 ± 0.15 | 0.699 ± 0.096 |
| CLPX (UniProt O76031) | 0.997 ± 0.032 | 0.999 ± 0.018 | 0.974 ± 0.033 | 1.02 ± 0.026 | 0.975 ± 0.041 | 1.01 ± 0.023 |
| UniProt O94967 and related entries | 1 ± 0.04 | 0.946 ± 0.031 | 0.998 ± 0.068 | 0.9654 ± 0.0075 | 0.921 ± 0.058 | 1.01 ± 0.077 |
| PSMG1 (UniProt O95456) | 0.944 ± 0.089 | 0.953 ± 0.058 | 0.947 ± 0.054 | 0.863 ± 0.088 | 0.954 ± 0.023 | 0.95 ± 0.031 |
| SMPD2 (UniProt O60906) | 0.962 ± 0.059 | 0.971 ± 0.033 | 0.926 ± 0.12 | 0.917 ± 0.019 | 0.948 ± 0.11 | 1.02 ± 0.11 |
| MOCS3 (UniProt O95396) | 0.991 ± 0.025 | 0.996 ± 0.017 | 0.973 ± 0.017 | 0.974 ± 0.067 | 0.9597 ± 0.0041 | 0.932 ± 0.0097 |
| UniProt O75475 and related entries | 1.04 ± 0.026 | 1.1 ± 0.012 | 1.12 ± 0.02 | 1.23 ± 0.027 | 1.18 ± 0.057 | 1.22 ± 0.036 |
| UniProt O60830 and related entries | 0.858 ± 0.09 | 0.916 ± 0.057 | 0.903 ± 0.048 | 0.831 ± 0.085 | 0.909 ± 0.058 | 0.939 ± 0.032 |

Some values from the list.
NBN (UniProt O60934) | NP40-soluble protein abundance (concentration: 4mM): 1.03 ± 0.039
UGDH (UniProt O60701) | NP40-soluble protein abundance (concentration: 4mM): 1 ± 0.019

From the supplement of paper PMC6411743
